From PubChem BioAssay AID1347423 (Functional Genomics Laboratory (NCATS/FGL), 2020) come the findings set out here.

In all, about 52,000 sequences went through this assay and about 210 (0.4%) were called active.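 Rule for the calls: active = gene whose silencing raises cell survival under the drug, median off-target-corrected z-score across its silencing RNAs 2 or more; inactive = the rest.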 The list shows a part of the results.

The experiment is described as follows: Resistance to Poly (ADP-Ribose) Polymerase inhibitor: Gene Identification via Genome-wide siRNA Screen. The settings on record: mouse BRCA2 R2336H ES cells, olaparib, CellTiter-Glo viability; hits give high values. An outline of the steps: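 Genome-wide siRNA screen (3 siRNAs/gene, 20 nM) in mouse ES cells carrying hypomorphic BRCA2 R2336H; olaparib 500 nM added 48 h post-transfection, CellTiter-Glo viability 72 h later. Normalized to plate-median negative control; MAD z-scores, gene median, seed-adjusted.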
(In general: Cellular ATP, detected with luciferase, serves as a proxy for viable cell number.)
GGAGAUGGGCUUCUAUAUUTT against BC018399: the z-score was inactive: -1.08. As for GGCCAACUUCCUUUUUAAATT against Tomm40, the figure is inactive: 0.038; as for GCUUCUAGGGACCUAUUAATT against Dhx30, inactive: -1.2.

Consider “GCAUACAGGAUUUACCGGCTT against 2310056K19Rik”, for which the z-score is inactive: 1.2. As for GGAUGUGAAGCAGUUCUAUTT against Cd81, the figure is inactive: -0.702; as for GGAGAUUGCAUCCUACCUGTT against Camta2, inactive: 1.35. In the case of GGCAAGAGCAAGAAAUGGCTT against Gprk6, the z-score is inactive: -0.597. Then GCAGGCAAAGUUCCUGAUATT against Cdh2, with inactive: 0.743; and GGUGUUAUUUUACACAAAGTT against Gla, with inactive: 0.526; and CGGUAGUCUUGUGUGUUGGTT against Rps27, with inactive: -0.0318.

GCCUGAGAAGAUUAUACCATT against Inpp5f: the z-score was inactive: 0.000779.

On to “GGCUGACUUCGUUUUCAUGTT against 1810063P04Rik”, for which the z-score was inactive: -0.916. Then GGUUCUGUUCCAGUUUUAATT against Il21, with inactive: -0.214; and GGAAUUAGAAAAAGUUUCCTT against Ddx58, with inactive: 0.255; and GGCAUCGGGAGUUCCAAUUTT against St18, with inactive: 1.05. Then “GCAAGAAACGGGAACUAUUTT against 0610006F02Rik”, with inactive: 2.13; and GAGAUUUCUCCUGUUAUUUTT against Scd2, with inactive: 0.397.

With GCAAAUUUGCCCUAAGGACTT against Lpl, the z-score was inactive: -0.436.

GGGAAAUUUGAACAACAACTT against Efnb3: the z-score was inactive: 0.665.

Consider GGAUGAUAUAUGUAACUUGTT against Nfe2l3, for which the z-score is inactive: -0.7.

In the case of “GGCUUCAUGCCUUAUCCACTT against 4931415M17”, the z-score is inactive: -0.441. Then “GGGAAUUAGAUGUGUGUAUTT against B930011P16Rik”, with inactive: -2.41; and CGUGCUUAAACUUACUCCATT against Kif18a, with inactive: 0.32. Then “GGAGGUGUUGAACAAGUGCTT against 1700008P20Rik”, with inactive: -1.32; and GCACACUUACGUUCACAUATT against MGC117751, with inactive: -0.0197; and GCUUCUUGAAAGUACAUUGTT against Appbp1, with inactive: 0.298.

Regarding GGAUCUUGAUACCCUCUACTT against Gp1ba, the z-score is inactive: 2.63.

With GCGCGUCUCAAAGCACUUUTT against Tbx15, the z-score was inactive: 0.515. As for CCGGAUCAAGAGCUUUACCTT against Trim29, the figure is inactive: -0.00641.

On to “GGGCUUGUAUCUACCAUGGTT against 6430510M02Rik”, for which the z-score was inactive: 1.53. As for GGUUGGACUGACUAUCCAUTT against Olfr984, the figure is inactive: -1.9. Then CCAUCGUGCUAAUAAAUAATT against Gars, with inactive: -1.02. As for GCUGUGGUAAACUGAAACUTT against Glis2, the figure is inactive: -1.11.

Regarding “GGGACAGUUAGUCAGUAAGTT against 3000003F02Rik”, the z-score was inactive: 0.179. As for CGGUGUAAAAUCAUCAUAGTT against Pcdhgb6, the figure is inactive: -2.54. Then GGAUGACUGAAUGAUGGGATT against Tcl1b5, with inactive: 1.27; and “CCGGACCUUAUUGUCAUUUTT against 2010110M21Rik”, with inactive: 1.9; and GGAGAUGAAGGGUAGCAUCTT against Thap11, with inactive: 0.484. Then CCCUUAAAAUACAACGAUCTT against Prnd, with inactive: 0.85. In the case of GGGAUGGCCUUUGGUUAAATT against V1rh11, the z-score was inactive: 0.916.

For GAGUAUCAUCUCCUUUUCUTT against Olfr395, the z-score is inactive: 0.736. As for GCCGAUUUUACAUGUGAUCTT against Klf8, the figure is inactive: 0.6. Then GCCUUAAUGUUUCUGUGAGTT against Pag, with inactive: 0.192; and GGUGAACCUCAACAGACUCTT against Gtf3c4, with inactive: -1.22. Then GGAAGAGACGCAAUAAGUGTT against Loh12cr1, with inactive: -0.574; and GCCCAUUAAUGCGUAUUUUTT against Mettl2, with inactive: -0.659. Consider GGGCGAGAUUACCAUCUUGTT against Tnfrsf19l, for which the z-score is inactive: 0.683. Then GGAGAGAAUAAACUCUACUTT against Tas2r130, with inactive: 0.477; and “GGUGCUGAUGAUGAUUAAATT against 0610039D01Rik”, with inactive: 1.14. As for GGUGAAGGUUAAAGAUAUUTT against Pcdha1, the figure is inactive: 0.263; as for “CCUUCUGUUGCUUAUACAUTT against 3110005G23Rik”, inactive: 0.123; as for GGAGUUUGCCAGUGAAUUUTT against Ptpn8, inactive: 0.67. As for GGGAUUUCAUAACUGCACUTT against Btrc, the figure is inactive: 0.784; as for “GCUUUGAUUCAUAAACAAGTT against 4932432N11Rik”, inactive: 1.22; as for GGCUGGGUUCCAAAAUACUTT against Crbn, inactive: 0.0863. “GCAAAAACGCAAGAUCUUCTT against 1110060O18Rik”: the z-score is inactive: 0.246. As for GGAGAUUGUUGACCUGGUCTT against Tuba7, the figure is inactive: 0.808.

Regarding GGUGAAGAUAAGUAUCUGCTT against Mug2, the z-score was inactive: 1.3. Then GGUUCUGUAUUUAUCUUAGTT against Olfr448, with inactive: 0.0801. As for GGCUAACUCCUUAAAACCUTT against Pycs, the figure is inactive: -2.19; as for GUACAAGCUCAAGUGCUCGTT against BC035954, inactive: -0.0504. For the sequence GGGACUGUACCCAGUUUAATT against Ccl27, the z-score is inactive: 1.79. As for GGCAACGGAAUUCCUUAAGTT against Dapk1, the figure is inactive: 3.06; as for GUCUUUGGAAAUCUACUCATT against Olfr1189, inactive: -1.52. Take CCAAUACCAUGACAUUGGGTT against Fabp1: the z-score was inactive: 0.34. For the sequence CCAGAAUGCUAGACACUGCTT against Aplra1, the z-score was inactive: -0.592. As for GGAUGAGCAAUAAUAGAAUTT against Ott, the figure is inactive: -1.97; as for GGAGAUUGAGGCACUGAAGTT against Srms, inactive: 0.603. As for GGACACCAAUCACAUUUGATT against Cngb3, the figure is inactive: -0.644; as for “GGGCUUUGUUCGUGGUACATT against C030039L03Rik”, inactive: 1.88; as for GCGCAGACUUACAAUUAUUTT against Bms1l, inactive: -2.53. Then GCUAGGUCAGGGAGUUUUATT against Exosc2, with inactive: -0.802; and GGACUGAACUUCUCAAUGUTT against Folr1, with inactive: 1.12. Consider “GGAGUGGACAAUUUCUUUATT against B230374F23Rik”, for which the z-score was inactive: -0.261. As for CCAUAUUUCGCUAUGGUGCTT against C87436, the figure is inactive: 1.25. As for “GGCUUUGGACUGUAUGACCTT against 2510048L02Rik”, the figure is inactive: -0.361. As for GGACAGUAUAGUGGAGAUCTT against Fgf22, the figure is inactive: -1.71; as for GGGUGAAAACUCAUUUUAUTT against St6gal2, inactive: 2.21. In the case of GGAUGAUUGCUGACGUGGATT against Bax, the z-score is inactive: 2.19. As for GCUGUACUAUGCUAAAAGGTT against Ghr, the figure is inactive: 1.18. Then GCAAACUUAAAGUGUCUCUTT against Ewsr1, with inactive: 0.349; and GCCUUCAUCACUUACACGUTT against Sstr5, with inactive: 1.13. Then GGCUCAGAUCAGAACUACGTT against Inpp4a, with inactive: -0.175. Regarding GGUGAAAUCCAGGAGUUUUTT against Rhoe, the z-score was inactive: 1.48.

Take “GGCUCAAGGCAUUGAAGGATT against 1810042K04Rik”: the z-score is inactive: -0.255.

For “GGACCAGCAAACUAAGAGATT against 4930449I24Rik”, the z-score was inactive: -0.257.

Consider CCCUCGGUAGCAAUAUAAATT against Ncoa2, for which the z-score was inactive: 2.14. As for GGUCAAGGAGUUCAUUCUGTT against Matn2, the figure is inactive: 0.198; as for GCUAAGAAGCAGACUUCAUTT against D6Wsu116e, inactive: -2.37.

In the case of GCUGGGUAAAUACCAGCAATT against Slc6a14, the z-score is inactive: 1.01. As for “GGCUGCAUUUCCAAAUGAUTT against 4933405K07Rik”, the figure is inactive: 0.239; as for CGUACAACCCAGGAGUUCUTT against Phxr1, inactive: 0.732; as for GCCAAAUCAGGAACAGCACTT against Trim29, inactive: 1.36. Then CCCUGUAUAUAUGAUGACATT against Ldhd, with inactive: -2.2. GAUGAAUACAUGGAGUCUCTT against C1qtnf3: the z-score is inactive: 0.788. Then GGAGGUAAAGGAAAACUCUTT against Fmo1, with inactive: -1.2; and GCUGCUGUCCUAAACUUUCTT against BC056474, with inactive: -0.669.

In the case of GCCAUGUUUCUGAGAACUUTT against Slc27a3, the z-score was inactive: -0.738. Then GGGAAAGAUAAGCUCAAGGTT against Sh2d2a, with inactive: 1.58; and GGACAAAGAAUUUCAACAATT against Gsg1, with inactive: 1.14.

“CGGGCUGAAUGUGUUUGUGTT against E130304D01”: the z-score is inactive: 0.71. As for “GCAACUGUGAACCAGUUGUTT against F730014I05Rik”, the figure is inactive: 0.631; as for “GCCUGCAUAUGAAACAGUATT against 2410066E13Rik”, inactive: -0.543. Then GCUAAAUUCUUUCCUGAAGTT against Rdx, with inactive: -0.0169.
